According to PubChem BioAssay AID602313 (National Center for Advancing Translational Sciences (NCATS), 2012):
The campaign covered roughly 390,000 compounds. About 760 (0.19%) were called active. This list was built around the results that the source calls inconclusive (neither active nor inactive); the mix of calls is not that of the screen. Calls follow the shape of the dose curve; as a rule, active = well fitted inhibition curve with a large enough effect; inconclusive = small, poorly fitted or top-dose-only effect; inactive = flat fitted curve, though single readings scatter. Potencies beside an inconclusive call are fits to weak or partial responses and may not hold up.

Test: qHTS for Inhibitors of Vif-A3F Interactions: qHTS; also: nearly all actives have a fitted effect of over 65% in size; as to activity, negative = active: % of control where 0% means no effect
Conditions: HeLa A3F-eYFP + Vif (tagged APOBEC3F with the HIV-1 protein that degrades it), YFP fluorescence increase; series mostly up to 46.1 µM; activity, negative = active: at the top concentration
Outline: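 Fluorescence increase (Ex 488/Em 500-530) after overnight compound treatment at 37 deg C flags inhibition of Vif-driven A3F-eYFP loss in stable HeLa A3F-eYFP/Vif cells seeded overnight beforehand.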
Potency is read from the fitted curve at half-maximal effect.

SMILES | activity, negative = active | Potency
Fc1ccccc1-c1csc(=Nc2cccnc2)n1CC1CCCO1 (configuration not stated) | inactive: -3.69% | 
CCCCC(CC)Cn1c(N)c(C#N)c2nc3ccccc3nc21 (configuration not stated) |  | inconclusive: 25.1 µM [inhibitor, single point]
CCc1cccc(CC)c1N1C(=O)C2=C(SCCCS2)C1=O |  | inconclusive: 35.5 µM [inhibitor, single point]
CCCCN(C)S(=O)(=O)c1ccc(C(=O)Nc2sc3c(c2C(=O)OCC)CCN(C(C)C)C3)cc1 |  | inconclusive: 35.5 µM [inhibitor, single point]
CN1C(=O)CC(Nc2cccc3cccc(N)c23)C1=O (configuration not stated) |  | inconclusive: 25.1 µM [inhibitor, single point]
O=C1Nc2cc(C(=O)N3CCN(c4ccc(F)cc4)CC3)ccc2NC1CSCc1cccc(F)c1 (configuration not stated) |  | inconclusive: 3.55 µM [inhibitor, full curve, poor fit]
Cc1cc(C)n(-c2nc(NC(C)C)nc(NC(C)C)n2)n1 | inactive: -2.85% | 
Cc1c(-n2c(-c3ccccc3Cl)n[nH]c2=S)c(=O)n(-c2ccccc2)n1C |  | inconclusive: 7.94 µM [inhibitor, partial curve, poor fit]
Cc1cccc(-n2c(C)cc(/C=N/NC(N)=S)c2C)c1 |  | inconclusive: 25.1 µM [inhibitor, single point]
O=C(NN=Cc1cccc2ccccc12)C(=O)NN=Cc1cccc2ccccc12 |  | inconclusive: 20 µM [inhibitor, partial curve, poor fit]
CC(C)[C@H](NC(=O)c1ccc(Br)cc1)C(=O)NC1CCCCC1 |  | inconclusive: 35.5 µM [inhibitor, single point]
CCOc1ccc(NC(=O)C2CC3CCC2C3)cc1 (configuration not stated) |  | inconclusive: 35.5 µM [inhibitor, single point]
COCC(C)n1c(C)cc(C(=O)COc2ccc(N(C)S(=O)(=O)c3ccc(NC(C)=O)cc3)cc2)c1C (configuration not stated) |  | inconclusive: 35.5 µM [inhibitor, single point]
O=C(NC(=S)N1CCN(c2ccc(Cl)cc2[N+](=O)[O-])CC1)c1ccco1 |  | inconclusive: 35.5 µM [inhibitor, single point]
CNc1ccc(Br)cc(C(=O)/C=C/c2cccc(Cl)c2Cl)c1=O |  | inconclusive: 20 µM [inhibitor, partial curve, poor fit]
Cn1c(=O)c2cc(S(=O)(=O)Nc3cccc(F)c3)ccc2n(C)c1=O |  | inconclusive: 35.5 µM [inhibitor, single point]
CCOC(=O)c1c(NC(=O)COC(=O)C2CC2C)sc(C)c1C (configuration not stated) |  | inconclusive: 6.31 µM [inhibitor, single point]
CCN1CCOC(=O)C1CC(=O)Nc1ccc(C)c(Cl)c1 (configuration not stated) | inactive: -7.58% | 
Cc1cccc(C(=O)Nc2ccc(C(=O)/C=C/c3ccncc3)cc2)c1 | inactive: 10.2% | 
C[n+]1ccc(/C=C/c2c[nH]c3ccccc23)cc1 |  | active: 10 µM
O=C(NC(=S)Nc1cccc(Cl)c1N1CCCCC1)c1ccc2c(c1)OCCO2 |  | inconclusive: 22.4 µM [inhibitor, single point]
Cc1ccc(C(=O)N2CCN(c3ccc(NC(=S)NC(=O)c4cccs4)cc3)CC2)cc1 | inactive: 0.695% | 
CC(O)c1cccc(NC(=O)Nc2cccc(NC(=O)Nc3cccc(C(C)O)c3)c2)c1 (configuration not stated) | inactive: 2.15% | 

Individual results from above:
Potency, Cc1cccc(-n2c(C)cc(/C=N/NC(N)=S)c2C)c1 reads inconclusive: 25.1 µM [inhibitor, single point]
Potency, CNc1ccc(Br)cc(C(=O)/C=C/c2cccc(Cl)c2Cl)c1=O reads inconclusive: 20 µM [inhibitor, partial curve, poor fit]
activity, negative = active, CCN1CCOC(=O)C1CC(=O)Nc1ccc(C)c(Cl)c1 (configuration not stated) reads inactive: -7.58%

Next structures follow:

SMILES | activity, negative = active | Potency
CC(C)N(Cc1cn[nH]c1-c1ccc(-c2ccccc2)cc1)Cc1nccn1C |  | inconclusive: 7.08 µM [inhibitor, partial curve, poor fit]
CCOc1cccc(/C=N/NC(=O)c2ccc3c(c2)OCCO3)c1O |  | inconclusive: 3.16 µM [inhibitor, full curve, poor fit]
CCOC(=O)c1cnc2c(C)cc(Cl)cc2c1N1CCN(C)CC1 | inactive: -5.51% | 
Cc1cccc(NC(=S)NCC23C=CC(O2)C2C(=O)N(c4ccc(Cl)cc4)C(=O)C23)c1 (configuration not stated) |  | inconclusive: 35.5 µM [inhibitor, single point]
CC(C)CNC(=O)COC(=O)c1cncc(Br)c1 | inactive: -8.19% | 
Cc1ccc(NC(=O)CSC2=C(C#N)C(c3ccc4c(c3)OCO4)C3=C(CCCC3=O)N2)c(C)c1 (configuration not stated) | inactive: 3.25% | 
O=C(CCN1C(=O)/C(=C/c2cccs2)SC1=S)Nc1ccccc1O |  | inconclusive: 17.8 µM [inhibitor, partial curve, poor fit]
Fc1cc(F)c2nc(Nc3nc4cc5c(cc4s3)OCO5)sc2c1 |  | inconclusive: 35.5 µM [inhibitor, single point]
O=C(C[n+]1ccc(CCSc2ccc(F)cc2)cc1)c1ccccc1 |  | inconclusive: 10 µM [inhibitor, partial curve, poor fit]
CC(=O)c1ccc(NC(=O)CCCN2C(=O)/C(=C/C(C)=C/c3ccccc3)SC2=S)cc1 | inactive: -9.96% | 
O=C(c1cccc(C(F)(F)F)c1)N1CCc2c([nH]c3ccccc23)C1C(F)(F)F (configuration not stated) |  | inconclusive: 31.6 µM [inhibitor, single point]
Cc1cc(/C=C2\SC(=O)NC2=O)c(C)n1-c1ccc(N2CCOCC2)cc1 |  | inconclusive: 4.47 µM [inhibitor, single point]
CN(C)C=Nc1ccc2nc3c(cc2c1)[nH]c1ccccc13 |  | inconclusive: 17.8 µM [inhibitor, partial curve, poor fit]
COc1ccc(/C=N/NC(=O)CNC(=O)/C=C/c2ccco2)cc1OC | inactive: 8.83% | 
CN(C)CCCOC(=O)COc1ccc(C(C)(C)C)cc1 |  | inconclusive: 2.82 µM [inhibitor, single point]
COC(=O)c1ccc(NC(=O)CN2CCN(CC#N)CC2)cc1 |  | inconclusive: 7.94 µM [inhibitor, partial curve, poor fit]
O=C(NCc1nnnn1-c1ccc(F)c(F)c1)C(=O)c1c[nH]c2ccccc12 |  | inconclusive: 6.31 µM [inhibitor, single point]
COc1ccc(NC(=O)CSc2nnc(-c3ccccc3C)n2N)cc1 | inactive: -1.07% | 
Cc1c(NC=C(C#N)C#N)c(=O)n(-c2ccccc2)n1C |  | inconclusive: 0.891 µM [inhibitor, partial curve, poor fit]
Oc1ccccc1-c1nc(NCc2ccccc2)c2ccccc2n1 |  | active: 22.4 µM
CCCCCCc1cc2cc(-c3nnc(-c4cccc(Cl)c4)o3)c(=O)oc2cc1O |  | inconclusive: 31.6 µM [inhibitor, partial curve, poor fit]
Cc1ccc(N2C(S)=C(C#N)C(=O)NC2c2ccco2)cc1 (configuration not stated) | inactive: -17.6% | 
COc1cc(/C=C2\SC(=S)N(NC(=O)c3ccccc3OC)C2=O)ccc1O |  | active: 22.4 µM

SMILES | activity, negative = active | Potency
COc1cccc(CNC(=O)N2CCN(S(=O)(=O)c3ccc(C)cc3)CC2)c1 | inactive: 10.6% | 
O=C(CCCCl)Oc1ccc2cc(-c3ccc4ccccc4n3)c(=O)oc2c1 |  | inconclusive: 2.24 µM [inhibitor, full curve, poor fit]
CCOc1cc2c(cc1/C=C/c1noc(C)c1[N+](=O)[O-])OC(C)C2 (configuration not stated) |  | inconclusive: 0.891 µM [inhibitor, full curve, poor fit]
CCOc1ccc(S(=O)(=O)N2CCOCC2)cc1NC(=O)CSCC(=O)Nc1ccc(OC)cc1 |  | inconclusive: 3.16 µM [inhibitor, partial curve, poor fit]
CN(C)c1ccc(/C=C2\SC(N3CCCCC3)=NC2=O)cc1 |  | active: 22.4 µM
Nc1c(C(=O)c2ccc(Cl)cc2)sc2nc3c(cc12)CCC3 |  | active: 25.1 µM
CCOC(=O)c1c(N)nn(C(=O)c2ccccc2F)c1-c1ccc(OC)cc1 |  | inconclusive: 5.62 µM [inhibitor, single point]
C/C(CC(=O)Nc1c(Cl)cccc1C(F)(F)F)=N\NC(=O)c1cnccn1 | inactive: -3.78% | 
COc1ccc2[nH]c(=O)c(CN(C3CCCCC3)C(c3nnnn3Cc3ccco3)C(C)C)cc2c1 (configuration not stated) |  | inconclusive: 22.4 µM [inhibitor, single point]
NC(=O)CC(NC(=O)Cc1ccc(Br)cc1)c1ccc(NC2CCCCCC2)c([N+](=O)[O-])c1 (configuration not stated) |  | inconclusive: 35.5 µM [inhibitor, single point]
C=CCn1c(SCC(=O)NC(=O)c2cccn2C)nc2ccccc2c1=O |  | inconclusive: 22.4 µM [inhibitor, single point]
Cc1ccc2c(c1C)NC(=O)CC(c1ccccc1O)=N2 |  | active: 11.2 µM
COc1ccc(C(=O)OCCc2sc[n+](CC(=O)c3ccccc3)c2C)cc1 | inactive: 5.41% | 
CCOc1ncccc1C(=O)NCCc1ccc(OC)cc1 |  | inconclusive: 8.91 µM [inhibitor, partial curve, poor fit]
N#CCCn1cc(C(=O)CN2C(=O)C(=O)N(C3CCCC3)C2=O)c2ccccc21 |  | inconclusive: 14.1 µM [inhibitor, partial curve, poor fit]
Cn1nnnc1-c1cc(Br)ccc1NC(=O)c1ccccc1 | inactive: 2.64% | 
CCCCC(O)(c1ccc(F)cc1)C(CN1CCOCC1)c1ccc(Cl)cc1 (configuration not stated) |  | inconclusive: 12.6 µM [inhibitor, partial curve, poor fit]
N#C/C(=C\c1cc2c(cc1Br)OCO2)c1ccc(C(=O)O)cc1 |  | inconclusive: 4.47 µM [inhibitor, single point]
Cc1ccsc1/C=N/NC(=O)Cc1ccc([N+](=O)[O-])cc1 |  | inconclusive: 2 µM [inhibitor, partial curve, poor fit]
Cc1c(=O)n(OCc2ccccc2F)c2ccccc2[n+]1[O-] |  | inconclusive: 35.5 µM [inhibitor, single point]
ClC1(Cl)CC1Cn1cnc2ccccc21 (configuration not stated) |  | inconclusive: 35.5 µM [inhibitor, single point]
